{"source": "patent US20100247659A1", "about": "“PHENYLPHTHALIMIDE ANALOGS FOR TREATING DIABETIC MACULAR EDEMA” (Charlesson, LLC, priority 2007, published 2010)", "key": {"[1]": {"system": "BRCEC", "experiment": "MTT cell proliferation assay, BRCEC", "assay_type": "cell-based, bovine", "conditions": "treated 3 days, read-out: IC50, inhibition of proliferation of BRCEC", "text": "(§1) Cell culture: All cell culture media and supplements were purchased from Cellgro unless otherwise indicated. Human Umbilical Vein Endothelial Cells (HUVEC) were obtained from American Type Culture Collection and grown in the EBM-MV2 medium (Clonetics). Bovine Retinal Endothelial Cells (BREC) and pericytes were isolated according to a modified method as described previously (Wong, et al. Investig. Opthalmol. Vis. Sci. 1987, 28: 1767-1775). Twelve bovine eyes were obtained from a local slaughterhouse (Country Home Meats). The retinas were removed and washed four times in DMEM. Subsequently retinas were homogenized and centrifuged at 400×g for 10 min. The resultant pellet was resuspended in an isolation medium (DMEM with 100 IU/ml penicillin, 100 μg/ml streptomycin and 250 ng/ml amphotericin). Microvessels were trapped on an 85 μm nylon mesh (Locker Wire Weavers LTD) and transferred to a petri dish (Falcon) containing 10 ml of an enzyme cocktail which consisted of 600 μg/ml DNase I (Sigma), 165 μg/ml collagenase (Sigma) and 700 μg/ml Pronase E (EMD) and were incubated at 37° C. for 20 min. The resultant vessel fragments were trapped on a 53 μm nylon mesh (Locker Wire Weavers LTD), washed with the isolation medium and centrifuged at 400×g for 5 min. For selective culture of pericytes, the resultant pellet was resuspended in 10 ml of the pericyte growth medium and transferred into 75-cm^2 plastic tissue culture flasks (BD Biosciences). […]\n(§2) MTT assay: Cells were seeded at a density of 5×10^4 cells per well in 400 μl of growth medium in triplicate in 24-well plates (Nalge Nunc) or gelatin-coated 24-well plates. […] The absorbance of the formazen product was measured at a wavelength of 570 nm, with 750 nm as the (subtracted) reference wavelength.\n(§3) Primary endothelial cells (HUVEC and BRCEC) and pericytes were treated with various concentrations of the compounds for 3 days. Viable cells were quantified using MTT assay and IC50 of each compound was calculated (mean±SD, n=3, FIG. 1). […]"}, "[2]": {"system": "OIR rats", "experiment": "Retinal vascular leakage in OIR rats, intravitreal injection", "assay_type": "in vivo, rat"}, "[3]": {"system": "HUVEC", "experiment": "MTT cell proliferation assay, HUVEC", "assay_type": "cell-based, human", "conditions": "treated 3 days, read-out: IC50, inhibition of proliferation of HUVEC", "text": "as §1, §2, §3"}, "[4]": {"system": "OIR rats", "experiment": "Retinal NV in OIR rats, fluorescein angiography", "assay_type": "in vivo, rat", "conditions": "for inhibition of retinal NV: 1.0 μg/eye intravitreal, evaluated P20; for effect on retinal NV, angiographs (FIG. 9): 5 μl of 0.8 mM per eye, angiography", "text": "Induction of oxygen-induced retinopathy (OIR): Induction of OIR followed the procedure as described by Smith et al (Smith, et al. Invest. Opthalmol. Vis. Sci. 1994, 35: 101-111) with some modifications. Briefly, Newborn Brown Norway (BN) rats (Charles River Laboratories) at postnatal day 7 (P7) were exposed to hyperoxia (75% O2) for 5 days (P7-12) and then returned to normoxia (room air) to induce retinopathy.\nRetinal angiography with high-molecular-weight fluorescein: High molecular weight fluorescein-dextran was used in retinal angiography as described by Smith et al (Smith, et al. Invest. Opthalmol. Vis. Sci. 1994, 35:101-111). Briefly, animals were anesthetized with ketamine (100 mg/kg of body weight) plus acepromazine (5 mg/kg of body weight) and then perfused through the left ventricle with 50 mg/ml of high molecular weight fluorescein-dextran in PBS. The eyes were marked for orientation, enucleated, and fixed in 4% paraformaldeyde for 3-24 h. Several incisions were made and the retinas were flat-mounted on a gelatin-coated slide. The vasculature was then examined under a fluorescent microscope. Both the total retinal area and the area of the avascular regions were measured using a computerized image-analysis system and averaged within each group.\nNewborn BN rats were exposed to 75% oxygen from age P7 to P12. The rats were then kept in room air for 4 days to allow partial formation of retinal NV. At age P16 when retinal NV has formed partially, OIR rats received a single intravitreal injection of thalidomide and Compounds 1, 2, and Compound 4 of 1.0 μg/eye (5 μl/eye of 0.2 mg/ml in BN rat serum) into the vitreous of the right eye and the vehicle (5 μl BN rat serum) into the left eye for control. […] The retinal vasculature was visualized under a fluorescent microscope and compared with that in the contralateral control eye (FIG. 9A). The neovascular events were observed on eye sections (FIG. 9B).\nIn FIG. 9A, OIR rats received an intravitreal injection of 5 μl of each compound (0.8 mM in BN rat serum) per eye into the right eye and the same volume of the vehicle into the left eye. Fluorescein retinal angiography was performed at P16. Angiographs are representatives of 3 rats per group."}, "[5]": {"system": "HIF-1α in PC-3 prostate cancer cells", "experiment": "Hypoxia-induced HIF-1α expression, western blot", "assay_type": "cell-based", "conditions": "10 μM, overnight, PC-3 cells"}, "[6]": {"system": "STZ-diabetic rats", "experiment": "Retinal vascular leakage in STZ-diabetic rats, intravitreal injection", "assay_type": "in vivo, rat", "conditions": "for effect on retinal vascular permeability: STZ-diabetes rats, 1 μg/eye; for effect on retinal vascular permeability / reduction of retinal vascular permeability: two days; for reduction of retinal vascular permeability: STZ-diabetic rats"}, "[7]": {"system": "HUVECs", "experiment": "Tube formation assay on matrigel", "assay_type": "cell-based, human", "conditions": "5 μM, 16 h", "protocol": "Eight-well slide chambers were coated with matrigel and at 37° C. and 5% CO2 for 30 min. HUVECs were then seeded at 30,000 cells/well in EGM-II containing either vehicle (0.5% DMSO), 5 μM of Compound 4 or thalidomide and incubated at 37° C. and 5% CO2 for 16 h. After incubation, slides were washed in PBS, fixed in 100% methanol for 10 s, and stained with DiffQuick solution II for 2 min. To analyze tube formation, each well was digitally photographed using a ×2.5 objective.\nRepresentative images were captured after incubation of vehicle, thalidomide and Compound 4 for 16 h."}, "[8]": {"system": "STZ-diabetes rats", "experiment": "Retinal vascular leakage in STZ-diabetes rats after oral administration", "assay_type": "in vivo, rat", "conditions": "200 mg/kg/day gavage, 7 day"}, "[9]": {"system": "VEGF", "experiment": "VEGF expression in retina of OIR rats, Western blot", "assay_type": "in vivo, rat", "conditions": "intravitreal 5 μl of 0.8 mM"}, "[10]": {"system": "HIF-1α", "experiment": "HIF-1α nuclear translocation in CoCl2-treated ARPE-19 cells, immunolabeling", "assay_type": "cell-based, human", "conditions": "400 μM CoCl2 16 h; 0.5, 1 and 2 μM"}, "[11]": {"system": "VEGF", "experiment": "VEGF level in ARPE-19 conditioned medium, ELISA", "assay_type": "cell-based, human", "conditions": "ARPE-19, CoCl2, 18 h"}, "[12]": {"system": "VEGF", "experiment": "VEGF level in retina of OIR rats, ELISA", "assay_type": "in vivo, rat", "conditions": "intravitreal at P14, two days"}, "[13]": {"system": "ICAM-1", "experiment": "ICAM-1 level in retina of OIR rats, ELISA", "assay_type": "in vivo, rat", "conditions": "intravitreal at P14, two days"}, "[14]": {"system": "BRCEC", "experiment": "BRCEC growth after 4 h treatment and medium replacement, MTT", "assay_type": "cell-based, bovine"}, "[15]": {"system": "soluble ICAM-1", "experiment": "Soluble ICAM-1 level in ARPE-19 conditioned medium, ELISA", "assay_type": "cell-based, human", "conditions": "ARPE-19, TNF-α, 18 h"}, "[16]": {"conditions": "intravitreal 5 μl 0.8 mM at P14, measured P16"}}, "note": "Entries after “also recorded” stand apart in the source; their conditions may differ. For part of these data: For at least one compound, name, drawing or mass did not settle the structure. Some entries share one result that the patent states for a list of compounds."}
{"smiles": "CC(C)c1cccc(C(C)C)c1N1C(=O)c2ccccc2C1=O", "note": "[Compound 2, (2,6-diisopropylphenyl)-1H-isoindole-1,3-dione]", "values": [{"measurement": "IC50", "setting": "[1]", "value": "< 3.3", "unit": "µM"}, {"measurement": "reduction of retinal vascular leakage", "setting": "[2]; [16]", "value": "did not significantly reduce the retinal vascular leakage"}, {"measurement": "IC50", "setting": "[3]", "value": "< 3.3", "unit": "µM"}, {"measurement": "inhibition of retinal NV", "setting": "[4]", "value": "lacked significant inhibition of retinal NV"}, {"measurement": "effect on retinal NV, angiographs (FIG. 9)", "setting": "[4]", "value": "did not reduce the NV"}, {"measurement": "suppression of hypoxia-induced HIF-1α expression", "setting": "[5]", "value": "79-90%"}]}
{"smiles": "CC(C)c1cccc(C(C)C)c1N1C(=O)c2ccc(O)cc2C1=O", "note": "[Compound 1]", "values": [{"measurement": "IC50", "setting": "[1]", "value": "< 3.3", "unit": "µM"}, {"measurement": "reduction of retinal vascular leakage", "setting": "[2]; [16]", "value": "did not significantly reduce the retinal vascular leakage"}, {"measurement": "IC50", "setting": "[3]", "value": "< 3.3", "unit": "µM"}, {"measurement": "inhibition of retinal NV", "setting": "[4]", "value": "lacked significant inhibition of retinal NV"}, {"measurement": "effect on retinal NV, angiographs (FIG. 9)", "setting": "[4]", "value": "did not reduce the NV"}, {"measurement": "suppression of hypoxia-induced HIF-1α expression", "setting": "[5]", "value": "79-90%"}]}
{"smiles": "CC1(C)O[C@@H]2C[C@H]3[C@@H]4CCC5=CC(=O)C=C[C@]5(C)[C@@]4(F)[C@@H](O)C[C@]3(C)[C@]2(C(=O)CO)O1", "note": "[Kenalog, triamcinolone acetonide, reference compound]", "values": [{"measurement": "effect on retinal vascular permeability", "setting": "[6]", "value": "had no therapeutic effect"}]}
{"smiles": "CC(C)c1cccc(C(C)C)c1N1C(=O)c2ccc(N)cc2C1=O", "note": "[Compound 4]", "values": [{"measurement": "inhibition of tube formation", "setting": "[7]", "value": "effectively inhibited tube formation"}, {"measurement": "retinal vascular leakage after oral administration", "setting": "[8]", "value": "Suppresses Retinal Vascular Leakage"}, {"measurement": "expression of VEGF in retina", "setting": "[9]", "value": "decreased"}, {"measurement": "HIF-1α activation (nuclear translocation)", "setting": "[10]", "value": "Attenuates"}, {"measurement": "expression of VEGF", "setting": "[11]", "value": "Reduces"}, {"measurement": "expression of VEGF in the retina", "setting": "[12]", "value": "Down-Regulates"}, {"measurement": "expression of ICAM-1 in the retina", "setting": "[13]", "value": "Down-Regulates"}, {"measurement": "block of retinal vascular leakage, time course", "setting": "[6]; 24 h and 48 h after single intravitreal administration", "value": "completely been blocked"}, {"measurement": "effect on retinal vascular permeability", "setting": "[6]", "value": "restored retinal vascular permeability to the baseline levels"}, {"measurement": "reduction of retinal vascular permeability", "setting": "[6]; dose of 0.5 μg/eye", "value": "significantly reduced vascular permeability; also recorded: significant reduction in retinal vascular permeability"}, {"measurement": "reduction of retinal vascular permeability", "setting": "[6]; doses of 0.75 and 1.0 μg/eye", "value": "significantly reduced vascular permeability; also recorded: significant reduction in retinal vascular permeability"}, {"measurement": "IC50", "setting": "[1]", "value": "< 3.3", "unit": "µM"}, {"measurement": "reduction of retinal vascular leakage", "setting": "[2]; dose of 0.5 μg/eye", "value": "not at the dose of 0.5 μg/eye"}, {"measurement": "reduction of retinal vascular leakage", "setting": "[2]; doses of 0.75 and 1.0 μg/eye", "value": "significantly reduced vascular leakage; also recorded: suppressed retinal vascular leakage"}, {"measurement": "IC50", "setting": "[3]", "value": "< 3.3", "unit": "µM"}, {"measurement": "inhibition of retinal NV", "setting": "[4]", "value": "partly inhibited the retinal NV"}, {"measurement": "effect on retinal NV, angiographs (FIG. 9)", "setting": "[4]", "value": "weak effect on retinal NV; also recorded: reduced NV"}, {"measurement": "BRCEC growth at later time points (3-9 days)", "setting": "[14]; 4 h treatment then fresh medium", "value": "cell growth recovered 3 days after treatment"}, {"measurement": "inhibition of BRCEC growth 1 day after treatment", "setting": "[14]; 4 h treatment, NPs 40 and 80 μg/ml, unincorporated 8, 16, 32 μM", "value": "did significantly inhibit cell growth"}, {"measurement": "expression of ICAM-1 (soluble)", "setting": "[15]", "value": "Reduces"}]}
